Literature values, collected in patent publication US11291651B2, “Glycopyrrolate salts” (Journey Medical Corporation, priority 2013, dated 2022).

Test system: hyperhidrosis
Details: topically applied; compared with aluminum chloride; cited from earlier work

C[N+]1(C)CCC(OC(=O)C(O)(c2ccccc2)C2CCCC2)C1 (stereo not shown) [glycopyrrolate bromide, glycopyrronium bromide]
skin irritation: less skin irritation
